Measurements published in the supplement of paper PMC10849652.
The other results are listed elsewhere or left out. Residues, ends and D or L forms follow the SMILES beside them. *: point of attachment. Cbz = O=C(OCc1ccccc1)*

The chains behind the UniProt entries cited, without tags or fusion partners. Where a name states a change or a piece, a line headed by the entry shows the natural chain unless it says otherwise.
UniProt Q99574: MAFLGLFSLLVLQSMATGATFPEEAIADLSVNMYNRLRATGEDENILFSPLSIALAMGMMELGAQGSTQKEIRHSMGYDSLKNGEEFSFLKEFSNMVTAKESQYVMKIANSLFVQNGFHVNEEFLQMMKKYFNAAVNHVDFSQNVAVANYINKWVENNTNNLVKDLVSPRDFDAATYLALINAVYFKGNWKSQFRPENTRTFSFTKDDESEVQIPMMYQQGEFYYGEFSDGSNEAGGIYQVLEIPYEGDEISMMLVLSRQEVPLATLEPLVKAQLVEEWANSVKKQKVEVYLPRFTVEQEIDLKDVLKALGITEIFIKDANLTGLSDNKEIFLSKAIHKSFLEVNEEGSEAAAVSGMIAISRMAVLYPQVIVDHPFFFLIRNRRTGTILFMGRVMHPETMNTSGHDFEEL
UniProt Q16181: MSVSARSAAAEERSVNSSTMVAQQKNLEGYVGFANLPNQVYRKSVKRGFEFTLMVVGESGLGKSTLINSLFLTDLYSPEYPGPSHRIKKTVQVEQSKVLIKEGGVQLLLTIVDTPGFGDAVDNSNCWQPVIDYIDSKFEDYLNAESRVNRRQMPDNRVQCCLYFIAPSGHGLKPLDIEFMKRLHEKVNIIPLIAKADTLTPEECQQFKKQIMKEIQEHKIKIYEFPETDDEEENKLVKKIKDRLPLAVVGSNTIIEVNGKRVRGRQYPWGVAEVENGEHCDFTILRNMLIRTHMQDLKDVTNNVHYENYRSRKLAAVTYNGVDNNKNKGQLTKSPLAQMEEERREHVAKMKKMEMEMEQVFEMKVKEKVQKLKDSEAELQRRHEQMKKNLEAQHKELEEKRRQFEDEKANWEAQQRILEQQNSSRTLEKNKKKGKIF
UniProt P30740: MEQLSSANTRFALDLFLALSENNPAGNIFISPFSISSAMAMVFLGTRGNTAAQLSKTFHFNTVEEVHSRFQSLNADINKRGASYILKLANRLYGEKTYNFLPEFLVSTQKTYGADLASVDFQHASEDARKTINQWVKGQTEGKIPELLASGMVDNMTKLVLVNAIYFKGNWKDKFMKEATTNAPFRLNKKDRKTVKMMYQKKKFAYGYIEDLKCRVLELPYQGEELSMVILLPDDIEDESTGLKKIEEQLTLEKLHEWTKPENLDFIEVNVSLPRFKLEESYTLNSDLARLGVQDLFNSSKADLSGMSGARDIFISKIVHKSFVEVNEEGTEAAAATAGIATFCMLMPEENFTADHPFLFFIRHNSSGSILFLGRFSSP
UniProt Q9Y371: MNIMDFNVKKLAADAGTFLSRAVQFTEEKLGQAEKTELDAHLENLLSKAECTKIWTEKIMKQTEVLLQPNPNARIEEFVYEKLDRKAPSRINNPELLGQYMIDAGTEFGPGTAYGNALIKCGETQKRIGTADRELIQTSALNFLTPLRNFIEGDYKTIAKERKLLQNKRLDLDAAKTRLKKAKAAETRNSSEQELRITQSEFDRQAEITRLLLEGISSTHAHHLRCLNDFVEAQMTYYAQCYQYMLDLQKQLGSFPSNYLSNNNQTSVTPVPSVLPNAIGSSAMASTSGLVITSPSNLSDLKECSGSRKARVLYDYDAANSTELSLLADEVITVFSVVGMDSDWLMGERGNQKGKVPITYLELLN
UniProt Q12872: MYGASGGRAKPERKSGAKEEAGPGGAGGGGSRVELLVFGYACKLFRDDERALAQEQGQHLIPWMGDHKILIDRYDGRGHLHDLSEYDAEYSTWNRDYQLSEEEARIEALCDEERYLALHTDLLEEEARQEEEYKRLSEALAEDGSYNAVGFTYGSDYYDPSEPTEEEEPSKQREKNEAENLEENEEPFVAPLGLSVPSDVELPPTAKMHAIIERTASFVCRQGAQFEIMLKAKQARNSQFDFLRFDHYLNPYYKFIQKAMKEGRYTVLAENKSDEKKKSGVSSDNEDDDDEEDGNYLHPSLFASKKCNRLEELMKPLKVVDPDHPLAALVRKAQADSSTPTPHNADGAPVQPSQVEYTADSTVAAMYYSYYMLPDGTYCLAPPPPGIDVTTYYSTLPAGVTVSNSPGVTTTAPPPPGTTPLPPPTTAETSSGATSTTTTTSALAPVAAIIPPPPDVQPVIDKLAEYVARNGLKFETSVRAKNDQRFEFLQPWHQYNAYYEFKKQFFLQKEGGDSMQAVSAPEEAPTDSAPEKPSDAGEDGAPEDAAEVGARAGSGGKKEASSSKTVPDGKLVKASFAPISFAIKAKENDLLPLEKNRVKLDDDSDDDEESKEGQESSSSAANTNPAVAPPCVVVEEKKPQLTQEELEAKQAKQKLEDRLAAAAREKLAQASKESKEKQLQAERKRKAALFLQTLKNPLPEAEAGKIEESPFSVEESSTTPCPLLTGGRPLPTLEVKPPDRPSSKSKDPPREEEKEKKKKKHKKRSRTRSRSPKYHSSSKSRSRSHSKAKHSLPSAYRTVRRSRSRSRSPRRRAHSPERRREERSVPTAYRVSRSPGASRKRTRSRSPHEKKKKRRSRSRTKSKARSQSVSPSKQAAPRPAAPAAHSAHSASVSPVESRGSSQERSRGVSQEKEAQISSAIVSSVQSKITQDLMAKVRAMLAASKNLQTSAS
UniProt Q15637: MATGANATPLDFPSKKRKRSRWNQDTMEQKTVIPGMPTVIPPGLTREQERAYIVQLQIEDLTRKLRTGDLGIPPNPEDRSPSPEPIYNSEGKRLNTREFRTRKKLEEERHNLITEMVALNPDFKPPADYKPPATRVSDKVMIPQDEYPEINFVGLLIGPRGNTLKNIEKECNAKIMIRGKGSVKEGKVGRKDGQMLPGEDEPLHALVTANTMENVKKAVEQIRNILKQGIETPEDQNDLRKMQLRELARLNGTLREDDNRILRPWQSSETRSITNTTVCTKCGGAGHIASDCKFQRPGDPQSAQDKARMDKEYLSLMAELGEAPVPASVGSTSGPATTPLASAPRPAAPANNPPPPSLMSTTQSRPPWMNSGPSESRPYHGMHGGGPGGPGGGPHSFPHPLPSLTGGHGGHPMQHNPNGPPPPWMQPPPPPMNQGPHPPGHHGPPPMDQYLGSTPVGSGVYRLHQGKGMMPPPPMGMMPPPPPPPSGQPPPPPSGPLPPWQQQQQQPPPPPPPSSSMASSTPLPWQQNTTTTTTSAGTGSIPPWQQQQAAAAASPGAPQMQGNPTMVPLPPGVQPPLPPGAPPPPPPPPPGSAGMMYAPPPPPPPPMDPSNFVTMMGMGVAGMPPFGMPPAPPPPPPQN
UniProt Q15019: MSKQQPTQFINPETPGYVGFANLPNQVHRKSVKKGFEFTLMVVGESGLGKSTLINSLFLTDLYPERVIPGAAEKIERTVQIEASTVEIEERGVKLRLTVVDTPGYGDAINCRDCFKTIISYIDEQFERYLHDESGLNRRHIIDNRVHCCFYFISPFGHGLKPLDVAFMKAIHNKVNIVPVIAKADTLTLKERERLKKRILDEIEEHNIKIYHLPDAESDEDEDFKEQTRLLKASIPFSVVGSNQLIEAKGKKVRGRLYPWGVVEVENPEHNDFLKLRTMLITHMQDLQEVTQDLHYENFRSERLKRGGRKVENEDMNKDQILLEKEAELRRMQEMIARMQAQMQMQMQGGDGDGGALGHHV
UniProt Q96ES7: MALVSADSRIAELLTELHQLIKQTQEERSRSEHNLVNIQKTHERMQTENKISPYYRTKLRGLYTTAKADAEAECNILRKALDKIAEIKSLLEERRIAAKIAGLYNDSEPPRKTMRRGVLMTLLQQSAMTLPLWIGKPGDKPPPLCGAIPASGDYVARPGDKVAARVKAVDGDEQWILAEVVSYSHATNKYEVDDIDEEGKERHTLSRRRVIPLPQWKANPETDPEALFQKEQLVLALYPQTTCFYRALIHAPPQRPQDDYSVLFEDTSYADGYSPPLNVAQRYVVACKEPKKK
UniProt P34896: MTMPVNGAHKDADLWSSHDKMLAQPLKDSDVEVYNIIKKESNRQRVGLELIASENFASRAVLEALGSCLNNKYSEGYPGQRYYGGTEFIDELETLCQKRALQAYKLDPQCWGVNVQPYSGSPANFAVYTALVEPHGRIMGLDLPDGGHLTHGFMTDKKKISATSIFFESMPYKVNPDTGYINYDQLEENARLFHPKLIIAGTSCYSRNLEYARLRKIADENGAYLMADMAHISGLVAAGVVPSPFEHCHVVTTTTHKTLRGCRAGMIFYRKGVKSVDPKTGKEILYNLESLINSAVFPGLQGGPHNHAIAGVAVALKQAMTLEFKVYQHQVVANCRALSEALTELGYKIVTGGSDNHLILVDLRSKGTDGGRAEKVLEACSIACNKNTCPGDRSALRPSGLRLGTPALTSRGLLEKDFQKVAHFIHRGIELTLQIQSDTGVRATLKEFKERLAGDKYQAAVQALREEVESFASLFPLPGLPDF
UniProt P50452: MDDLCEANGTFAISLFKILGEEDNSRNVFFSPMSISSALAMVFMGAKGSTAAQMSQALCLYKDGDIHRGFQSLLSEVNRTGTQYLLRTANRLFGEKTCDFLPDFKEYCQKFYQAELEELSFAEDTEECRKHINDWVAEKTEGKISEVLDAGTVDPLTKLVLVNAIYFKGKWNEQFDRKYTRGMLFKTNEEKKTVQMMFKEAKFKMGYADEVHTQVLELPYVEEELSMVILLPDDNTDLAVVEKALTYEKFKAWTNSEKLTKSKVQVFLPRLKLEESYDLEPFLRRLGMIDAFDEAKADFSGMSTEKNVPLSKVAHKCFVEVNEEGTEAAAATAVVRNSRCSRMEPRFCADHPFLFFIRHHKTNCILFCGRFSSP
UniProt P62341, whole entry, looked up: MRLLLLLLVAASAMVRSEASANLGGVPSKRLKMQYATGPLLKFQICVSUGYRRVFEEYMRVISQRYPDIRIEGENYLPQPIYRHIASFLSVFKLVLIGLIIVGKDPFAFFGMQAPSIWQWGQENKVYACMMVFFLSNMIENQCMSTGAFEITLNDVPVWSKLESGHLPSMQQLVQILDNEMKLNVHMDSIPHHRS
UniProt Q9Y3B4: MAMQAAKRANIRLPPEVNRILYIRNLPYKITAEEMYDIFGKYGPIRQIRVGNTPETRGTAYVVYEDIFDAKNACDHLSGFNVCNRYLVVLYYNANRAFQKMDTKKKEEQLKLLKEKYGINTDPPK
UniProt Q14141: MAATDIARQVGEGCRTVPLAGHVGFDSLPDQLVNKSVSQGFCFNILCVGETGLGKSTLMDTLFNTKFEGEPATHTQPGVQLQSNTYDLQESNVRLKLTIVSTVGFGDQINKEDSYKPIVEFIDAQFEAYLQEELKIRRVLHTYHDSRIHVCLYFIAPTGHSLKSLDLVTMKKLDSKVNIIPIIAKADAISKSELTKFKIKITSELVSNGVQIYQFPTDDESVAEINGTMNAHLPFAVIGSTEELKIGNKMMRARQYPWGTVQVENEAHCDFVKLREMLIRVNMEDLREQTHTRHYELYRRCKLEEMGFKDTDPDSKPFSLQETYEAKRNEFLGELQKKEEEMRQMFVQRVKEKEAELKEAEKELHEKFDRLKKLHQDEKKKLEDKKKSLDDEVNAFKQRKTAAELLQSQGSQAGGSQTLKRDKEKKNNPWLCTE
UniProt Q6P4A7: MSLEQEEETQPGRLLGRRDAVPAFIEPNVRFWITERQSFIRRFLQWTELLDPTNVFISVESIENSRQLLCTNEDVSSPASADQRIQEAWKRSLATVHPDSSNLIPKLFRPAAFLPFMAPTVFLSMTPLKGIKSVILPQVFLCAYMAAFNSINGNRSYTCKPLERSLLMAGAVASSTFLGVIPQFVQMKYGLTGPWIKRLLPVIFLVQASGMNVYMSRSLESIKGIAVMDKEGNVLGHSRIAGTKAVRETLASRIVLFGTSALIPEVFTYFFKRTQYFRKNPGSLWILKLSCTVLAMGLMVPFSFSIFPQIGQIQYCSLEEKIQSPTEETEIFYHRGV
UniProt O75368: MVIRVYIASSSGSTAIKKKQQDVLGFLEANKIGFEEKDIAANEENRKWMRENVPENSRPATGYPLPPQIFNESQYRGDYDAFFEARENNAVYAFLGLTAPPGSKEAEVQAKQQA
UniProt Q9Y3L3: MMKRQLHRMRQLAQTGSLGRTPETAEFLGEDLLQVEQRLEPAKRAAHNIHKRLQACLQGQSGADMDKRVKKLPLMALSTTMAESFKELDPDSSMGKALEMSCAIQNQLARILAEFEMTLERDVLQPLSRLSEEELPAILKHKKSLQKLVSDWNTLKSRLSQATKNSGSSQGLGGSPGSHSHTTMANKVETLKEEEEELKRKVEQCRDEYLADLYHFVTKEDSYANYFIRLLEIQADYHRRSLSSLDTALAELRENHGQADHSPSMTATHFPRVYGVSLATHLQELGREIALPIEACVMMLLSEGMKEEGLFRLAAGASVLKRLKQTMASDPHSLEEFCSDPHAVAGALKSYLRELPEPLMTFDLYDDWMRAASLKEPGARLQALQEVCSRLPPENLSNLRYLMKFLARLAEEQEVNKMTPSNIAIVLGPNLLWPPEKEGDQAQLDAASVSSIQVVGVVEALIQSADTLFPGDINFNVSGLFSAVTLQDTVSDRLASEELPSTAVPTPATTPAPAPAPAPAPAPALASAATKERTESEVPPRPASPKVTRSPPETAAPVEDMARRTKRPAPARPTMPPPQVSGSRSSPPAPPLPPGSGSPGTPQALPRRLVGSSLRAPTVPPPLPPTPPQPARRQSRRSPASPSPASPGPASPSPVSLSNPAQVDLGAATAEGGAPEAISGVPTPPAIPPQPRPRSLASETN

Assays:
Test in all cases: log2 fold change, soluble protein after heating vs DMSO (PISA); higher = thermal stabilisation; K562 cells, 10 uM, 30 min; active = over 0.2 and 3.5 SD of the protein, either way, in both replicates (recomputed)
erlotinib = compound: C#Cc1cccc(Nc2ncnc3cc(OCCOC)c(OCCOC)cc23)c1 [erlotinib]
Procedure, shortened: (§1)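 Soluble protein was quantified by TMTpro 16plex LC-MS/MS after channel sums were equalised. It was obtained as the supernatant after 21,000xg for 90 min from pooled aliquots of K562 cells (2×10^6 cells/mL, 10 μM compound, 30 min) heated for 3 min across 48°C-58°C and extracted in PBS with 0.5% NP-40 at 4°C. Thermal stability values are relative to control samples and come from duplicates. They are given as log2 fold changes.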

[1] = compound: C/C(=N\NC(=O)C1=CC(=CC=C1)S(=O)(=O)N2CCOCC2)/C3=C(C=CC(=C3)Cl)O
Procedure, shortened: as §1

[2] = compound: C1=CC(=C(C=C1Cl)C2=NC3=NC=CN=C3C(=N2)NC4=CC=NC=C4)F
Procedure, shortened: as §1

[3] = compound: C1=CC(=CC=C1C2=NC3=C(N2)C=C(C=C3)C(=O)N)OC4=CC=C(C=C4)Cl
Procedure, shortened: as §1

[4] = compound: C1=CC2=C(C=CC(=C2)/C=C\3/C(=O)NC(=NCC4=CC=CS4)S3)N=C1
Procedure, shortened: as §1

[5] = compound: C1=CC2=NC=CN=C2C=C1/C=C/3\C(=O)NC(=O)S3
Procedure, shortened: as §1

[6] = compound: C1=CC=C(C=C1)C2=NC(=C(N2)C3=CC=NC=C3)C4=CC(=C(C=C4)Cl)O
Procedure, shortened: as §1

[7] = compound: C1=CC=C2C(=C1)C3=NNC4=CC=CC(=C43)C2=O
Procedure, shortened: as §1

[8] = compound: C1CCN(C1)C(=O)NC2=CC=CC(=C2)NC3=NC=C(C(=N3)NCCC4=CN=CN4)Br
Procedure, shortened: as §1

[9] = compound: C1CN(CCC1(CC2=CC=C(C=C2)Cl)N)C3=NC=NC4=C3C=CN4
Procedure, shortened: as §1

IRAK-1-4 Inhibitor I = compound: C1COCCN1CCN2C3=CC=CC=C3N=C2NC(=O)C4=CC(=CC=C4)[N+](=O)[O-] [IRAK-1-4 Inhibitor I]
Procedure, shortened: as §1

ibrutinib = compound: C=CC(=O)N1CCC[C@@H](n2nc(-c3ccc(Oc4ccccc4)cc3)c3c(N)ncnc32)C1 [ibrutinib]
Procedure, shortened: as §1

[10] = compound: CC(=O)c1cnc2ccc(-c3cc(Cl)c(O)c(Cl)c3)nc2c1N[C@H]1CC[C@H](CN(C)C)CC1
Procedure, shortened: as §1

ralimetinib = compound: CC(C)(C)Cn1c(N)nc2ccc(-c3[nH]c(C(C)(C)C)nc3-c3ccc(F)cc3)nc21 [ralimetinib]
Procedure, shortened: as §1

[11] = compound: CC(C)(O)CC(=O)NCCn1ccc2ncnc(Nc3ccc(Oc4cccc(C(F)(F)F)c4)c(Cl)c3)c21
Procedure, shortened: as §1

[12] = compound: CC(C)C1=C2N=C(C=C(N2N=C1)NCC3=CC=CC=C3)NCCCCCCN
Procedure, shortened: as §1

[13] = compound: CC(C)C[C@@H](C=O)NC(=O)[C@H](CC(C)C)NC(=O)[C@H](CC(C)C)NC(=O)OCc1ccccc1
Procedure, shortened: as §1

pinometostat = compound: CC(C)N(C[C@H]1O[C@@H](n2cnc3c(N)ncnc32)[C@H](O)[C@@H]1O)[C@H]1C[C@@H](CCc2nc3cc(C(C)(C)C)ccc3[nH]2)C1 [pinometostat]
Procedure, shortened: as §1

[14] = compound: CC1=C(C(CC(=O)N1)C2=CC=C(C=C2)C(F)(F)F)C(=O)NC3=C(C=C4C(=C3)C=NN4)F
Procedure, shortened: as §1

[15] = compound: CC1=C(C2=C(C=C1)C(=O)C3=CC=CC=C3N2CCCN)C
Procedure, shortened: as §1

Measured: log2 fold change

SERPINI1 (UniProt Q99574)
inactive: erlotinib 0.022 | [1] -0.077 | [2] 0.042 | [3] -0.035 | [4] 0.077 | [5] 0.027 | [6] 0.017 | [7] 0.026 | [8] 0.002 | [9] 0.084 | IRAK-1-4 Inhibitor I 0.053 | ibrutinib 0.007 | [10] 0.014 | ralimetinib 0.029 | [11] 0.07 | [12] 0.064 | [13] 0.01 | pinometostat -0.044 | [14] 0 | [15] -0.037

SEPTIN7 (UniProt Q16181)
inactive: erlotinib 0.019 | [1] 0.059 | [2] 0.039 | [3] -0.015 | [4] -0.021 | [5] 0.005 | [6] 0.11 | [7] 0.102 | [8] -0.01 | [9] 0.029 | IRAK-1-4 Inhibitor I -0.014 | ibrutinib -0.025 | [10] 0.001 | ralimetinib 0.058 | [11] -0.014 | [12] 0.042 | [13] -0.056 | pinometostat -0.061 | [14] 0.029 | [15] 0.01

SERPINB1 (UniProt P30740)
inactive: erlotinib 0.015 | [1] 0.043 | [2] 0.038 | [3] -0.005 | [4] 0.007 | [5] -0.004 | [6] 0.013 | [7] 0.016 | [8] -0.005 | [9] 0.018 | IRAK-1-4 Inhibitor I 0.038 | ibrutinib -0.014 | [10] -0.018 | ralimetinib -0.016 | [11] -0.019 | [12] 0.022 | [13] -0.014 | pinometostat -0.024 | [14] -0.011 | [15] 0.013

SH3GLB1 isoform 2 (UniProt Q9Y371)
inactive: erlotinib 0.044 | [1] 0 | [2] -0.098 | [3] 0.006 | [4] -0.052 | [5] 0.048 | [6] -0.111 | [7] 0.024 | [8] 0.06 | [9] -0.037 | IRAK-1-4 Inhibitor I -0.057 | ibrutinib -0.003 | [10] -0.103 | ralimetinib 0.009 | [11] -0.059 | [12] -0.167 | [13] 0.083 | pinometostat 0.09 | [14] 0.023 | [15] -0.111

SFSWAP isoform 2 (UniProt Q12872)
inactive: erlotinib -0.023 | [1] 0.046 | [2] -0.078 | [3] -0.013 | [4] -0.046 | [5] 0.024 | [6] -0.079 | [7] -0.072 | [8] -0.069 | [9] -0.004 | IRAK-1-4 Inhibitor I 0.024 | ibrutinib 0.108 | [10] -0.228 | ralimetinib 0.014 | [11] -0.004 | [12] -0.037 | [13] 0.09 | pinometostat 0.006 | [14] 0.1 | [15] 0.049

SF1 isoform 6 (UniProt Q15637)
inactive: erlotinib 0.067 | [1] 0.036 | [2] -0.128 | [3] 0 | [4] 0.033 | [5] -0.129 | [6] 0.068 | [7] -0.023 | [8] -0.054 | [9] 0.044 | IRAK-1-4 Inhibitor I -0.023 | ibrutinib 0.063 | [10] 0.032 | ralimetinib 0.031 | [11] 0.086 | [12] 0.001 | [13] 0.021 | pinometostat 0.043 | [14] 0.012 | [15] 0.067

SEPTIN2 isoform 2 (UniProt Q15019)
inactive: erlotinib 0.01 | [1] -0.017 | [2] 0.008 | [3] -0.005 | [4] 0.002 | [5] 0.022 | [6] -0.019 | [7] 0.003 | [8] -0.002 | [9] 0.043 | IRAK-1-4 Inhibitor I 0.024 | ibrutinib -0.004 | [10] 0.012 | ralimetinib -0.018 | [11] 0.009 | [12] 0.054 | [13] 0.008 | pinometostat -0.033 | [14] 0.016 | [15] 0.004

SGF29 (UniProt Q96ES7)
inactive: erlotinib 0.021 | [1] 0.029 | [2] -0.018 | [3] 0.004 | [4] -0.007 | [5] -0.03 | [6] 0.016 | [7] 0.035 | [8] -0.028 | [9] 0.081 | IRAK-1-4 Inhibitor I 0.016 | ibrutinib 0.071 | [10] -0.064 | ralimetinib -0.013 | [11] -0.017 | [12] 0.121 | [13] 0.059 | pinometostat 0.033 | [14] -0.028 | [15] 0.067

SHMT1 (UniProt P34896)
inactive: erlotinib 0.028 | [1] 0.012 | [2] 0.074 | [3] 0.042 | [4] 0.026 | [5] 0.009 | [6] 0.034 | [7] -0.001 | [8] -0.03 | [9] 0.068 | IRAK-1-4 Inhibitor I 0.042 | ibrutinib 0.028 | [10] 0.015 | ralimetinib -0.01 | [11] -0.054 | [12] 0.063 | [13] 0.014 | pinometostat 0.001 | [14] 0.059 | [15] 0.036

SERPINB8 (UniProt P50452)
inactive: erlotinib 0.024 | [1] -0.025 | [2] -0.035 | [3] -0.005 | [4] -0.04 | [5] 0.047 | [6] -0.004 | [7] -0.039 | [8] 0.04 | [9] 0.063 | IRAK-1-4 Inhibitor I 0.057 | ibrutinib 0.014 | [10] 0.038 | ralimetinib -0.098 | [11] -0.023 | [12] 0.042 | [13] -0.041 | pinometostat -0.058 | [14] 0.023 | [15] -0.139

SELENOT (UniProt P62341)
inactive: erlotinib 0.007 | [1] 0.095 | [2] 0.045 | [3] 0.038 | [4] -0.034 | [5] 0.03 | [6] -0.038 | [7] -0.162 | [8] 0.023 | [9] 0.101 | IRAK-1-4 Inhibitor I 0.086 | ibrutinib -0.046 | [10] 0.173 | ralimetinib -0.038 | [11] -0.09 | [12] -0.02 | [13] 0.048 | pinometostat 0.077 | [14] 0.146 | [15] 0.008

SF3B6 (UniProt Q9Y3B4)
inactive: erlotinib 0.038 | [1] 0.026 | [2] -0.256 | [3] 0.052 | [4] 0.13 | [5] 0.023 | [6] 0.005 | [7] -0.063 | [8] 0.029 | [9] -0.094 | IRAK-1-4 Inhibitor I -0.061 | ibrutinib 0.122 | [10] -0.065 | ralimetinib 0 | [11] 0.08 | [12] -0.204 | [13] 0.061 | pinometostat 0.162 | [14] -0.046 | [15] -0.144

Copied from above (2 entries):
SERPINB8 (UniProt P50452)
inactive: erlotinib 0.024 | [1] -0.025 | [2] -0.035 | [3] -0.005 | [4] -0.04 | [5] 0.047 | [6] -0.004 | [7] -0.039 | [8] 0.04 | [9] 0.063 | IRAK-1-4 Inhibitor I 0.057 | ibrutinib 0.014 | [10] 0.038 | ralimetinib -0.098 | [11] -0.023 | [12] 0.042 | [13] -0.041 | pinometostat -0.058 | [14] 0.023 | [15] -0.139

SELENOT (UniProt P62341)
inactive: erlotinib 0.007 | [1] 0.095 | [2] 0.045 | [3] 0.038 | [4] -0.034 | [5] 0.03 | [6] -0.038 | [7] -0.162 | [8] 0.023 | [9] 0.101 | IRAK-1-4 Inhibitor I 0.086 | ibrutinib -0.046 | [10] 0.173 | ralimetinib -0.038 | [11] -0.09 | [12] -0.02 | [13] 0.048 | pinometostat 0.077 | [14] 0.146 | [15] 0.008

(listing goes on)

SEPTIN6 (UniProt Q14141)
inactive: erlotinib -0.081 | [1] 0.026 | [2] 0.014 | [3] 0.03 | [4] 0.018 | [5] 0.013 | [6] -0.032 | [7] -0.014 | [8] 0.022 | [9] 0.073 | IRAK-1-4 Inhibitor I 0.047 | ibrutinib 0.02 | [10] -0.031 | ralimetinib -0.082 | [11] 0.041 | [12] 0.052 | [13] 0.014 | pinometostat -0.018 | [14] 0.014 | [15] 0.024

SFXN4 (UniProt Q6P4A7)
inactive: erlotinib -0.027 | [1] -0.02 | [2] 0.015 | [3] -0.022 | [4] 0.098 | [5] 0.029 | [6] 0.014 | [7] 0.017 | [8] 0.008 | [9] 0.071 | IRAK-1-4 Inhibitor I 0.012 | ibrutinib -0.02 | [10] -0.015 | ralimetinib -0.057 | [11] 0.038 | [12] -0.014 | [13] 0.037 | pinometostat -0.018 | [14] 0.02 | [15] 0.042

SH3BGRL (UniProt O75368)
inactive: erlotinib 0.044 | [1] 0.033 | [2] 0.162 | [3] -0.01 | [4] 0.014 | [5] 0.009 | [6] 0.096 | [7] 0.034 | [8] -0.08 | [9] 0.03 | IRAK-1-4 Inhibitor I 0.053 | ibrutinib -0.003 | [10] 0.027 | ralimetinib -0.026 | [11] -0.06 | [12] 0.049 | [13] -0.113 | pinometostat -0.055 | [14] -0.01 | [15] 0.023

SH3BP1 (UniProt Q9Y3L3)
inactive: erlotinib 0.017 | [1] 0.035 | [2] 0.046 | [3] 0.027 | [4] 0.05 | [5] 0.026 | [6] 0.017 | [7] -0.008 | [8] -0.025 | [9] 0.03 | IRAK-1-4 Inhibitor I 0.027 | ibrutinib 0.021 | [10] -0.071 | ralimetinib 0.004 | [11] -0.019 | [12] -0.025 | [13] 0.019 | pinometostat -0.016 | [14] -0.02 | [15] 0.029
